## Percent effect of library compounds

By UniProt entry, the sequences of proteins in these tests, tags left out. Residues count along the entry.
UniProt A4I591, 1-473: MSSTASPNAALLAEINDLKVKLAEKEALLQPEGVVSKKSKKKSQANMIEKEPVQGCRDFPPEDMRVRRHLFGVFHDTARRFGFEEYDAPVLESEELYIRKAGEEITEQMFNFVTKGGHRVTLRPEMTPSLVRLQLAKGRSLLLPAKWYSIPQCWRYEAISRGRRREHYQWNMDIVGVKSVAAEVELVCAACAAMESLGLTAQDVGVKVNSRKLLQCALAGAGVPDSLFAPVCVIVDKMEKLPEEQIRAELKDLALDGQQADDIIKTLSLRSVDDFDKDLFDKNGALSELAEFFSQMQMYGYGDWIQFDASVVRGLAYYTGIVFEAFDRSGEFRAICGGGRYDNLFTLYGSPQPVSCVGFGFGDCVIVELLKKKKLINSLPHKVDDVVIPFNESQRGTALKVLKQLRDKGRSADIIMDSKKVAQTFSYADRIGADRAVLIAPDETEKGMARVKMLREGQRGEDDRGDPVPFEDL
UniProt P9WNZ1, whole entry: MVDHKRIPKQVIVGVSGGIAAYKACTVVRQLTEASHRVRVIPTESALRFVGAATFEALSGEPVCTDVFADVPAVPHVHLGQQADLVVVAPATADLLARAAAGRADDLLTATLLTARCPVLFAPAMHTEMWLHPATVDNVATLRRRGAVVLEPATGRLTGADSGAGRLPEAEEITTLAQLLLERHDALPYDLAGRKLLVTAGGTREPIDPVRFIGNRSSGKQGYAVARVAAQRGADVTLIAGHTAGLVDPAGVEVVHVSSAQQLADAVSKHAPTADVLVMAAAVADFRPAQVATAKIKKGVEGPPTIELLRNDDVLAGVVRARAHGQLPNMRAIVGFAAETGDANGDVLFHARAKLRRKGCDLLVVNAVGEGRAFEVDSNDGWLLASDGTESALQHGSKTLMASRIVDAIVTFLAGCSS
UniProt Q8IDJ8, 1-583: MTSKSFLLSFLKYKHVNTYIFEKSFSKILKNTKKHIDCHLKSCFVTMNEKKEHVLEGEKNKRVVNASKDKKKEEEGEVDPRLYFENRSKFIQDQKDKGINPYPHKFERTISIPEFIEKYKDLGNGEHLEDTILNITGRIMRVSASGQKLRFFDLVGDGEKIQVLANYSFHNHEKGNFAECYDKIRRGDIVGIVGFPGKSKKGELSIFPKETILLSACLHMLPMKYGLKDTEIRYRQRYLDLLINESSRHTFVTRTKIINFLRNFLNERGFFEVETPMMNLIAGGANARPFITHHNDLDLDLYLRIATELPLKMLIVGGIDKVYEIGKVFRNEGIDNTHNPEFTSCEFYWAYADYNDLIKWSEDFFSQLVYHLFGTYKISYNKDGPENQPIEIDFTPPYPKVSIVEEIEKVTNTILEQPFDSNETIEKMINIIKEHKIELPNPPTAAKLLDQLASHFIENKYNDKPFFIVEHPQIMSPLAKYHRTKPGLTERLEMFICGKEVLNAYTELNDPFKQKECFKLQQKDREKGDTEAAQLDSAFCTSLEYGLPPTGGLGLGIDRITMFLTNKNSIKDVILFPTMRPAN
UniProt P9WFT3, whole entry: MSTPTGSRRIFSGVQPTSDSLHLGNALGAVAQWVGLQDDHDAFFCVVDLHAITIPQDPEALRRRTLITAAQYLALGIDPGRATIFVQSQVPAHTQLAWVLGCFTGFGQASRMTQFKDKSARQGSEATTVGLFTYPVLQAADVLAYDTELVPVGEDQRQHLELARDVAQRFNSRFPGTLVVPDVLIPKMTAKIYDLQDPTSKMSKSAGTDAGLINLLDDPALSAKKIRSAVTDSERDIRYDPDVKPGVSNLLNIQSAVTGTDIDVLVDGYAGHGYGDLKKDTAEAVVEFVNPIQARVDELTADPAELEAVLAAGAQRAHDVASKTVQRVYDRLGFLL

The values are deposited in ChEMBL (CHEMBL3988442, “University of Dundee, Small-Polar-MMV Screening Library” (2021)).

Values are the deposited “Percent Effect”, in %.
How 0% and 100% were set is not recorded. Most values in the screen are low, and negative values occur.
Compounds were drawn at random from those tested, without regard to their results.
Two or more numbers in one place are separate tests of the same structure; such repeats can differ widely.
A dash means the value is not listed here; it may have been measured.

LiHisRS: 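Enzyme assay of histidyl-tRNA synthetase; the read-out is not stated. Target: Histidine-tRNA ligase, Leishmania infantum (UniProt A4I591). Concentration: 30 µM. Higher reads as stronger inhibition (inferred: compounds with an IC50 in retests scored well above the rest). The assay is labelled LdHisRS but filed under L. infantum. Size under these conditions: about 69,000 compounds, about 410 of them at 50% or above in at least one test.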
CoaBC: 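Coenzyme A biosynthesis protein CoaBC, Mycobacterium tuberculosis (UniProt P9WNZ1). Enzyme assay of CoaBC with a phosphate dye (Biomol Green) read at 650 nm. Compounds at 30 µM. Direction is inferred from only a few compounds that gave an IC50; most scored high, so higher reads as stronger inhibition. Most strong results did not repeat in a second test. Size under these conditions: about 67,000 compounds, about 40 of them at 50% or above in at least one test.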
PfKRS1: 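Lysine-tRNA ligase, Plasmodium falciparum 3D7 (UniProt Q8IDJ8). Enzyme assay of the cytosolic lysyl-tRNA synthetase in 384-well plates, read by luminescence. Concentration: 30 µM. Higher reads as stronger inhibition, judged from the few compounds that gave an IC50. Size under these conditions: about 69,000 compounds, about 49 of them at 50% or above in at least one test.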
MtTrpRS: 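Tryptophan-tRNA ligase, Mycobacterium tuberculosis (UniProt P9WFT3). Enzyme assay of tryptophanyl-tRNA synthetase; the read-out is not stated. Compounds at 10 µM. Direction is not recorded; retested compounds ran higher, which suggests that high means inhibition. Size under these conditions: about 65,000 compounds, about 64 of them at 50% or above in at least one test.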

structure	LiHisRS	CoaBC	PfKRS1	MtTrpRS
Cc1nc(N2CCCCC2)ncc1C(=O)N1CC(C)(C)[C@@](C)(O)C1	9.434%	-0.8811%	5.48%	0%
COc1ncccc1CNC(=O)c1cc(F)cc(Br)c1	-20.63%	6.957%	2.831%	1.486%
COc1cccc(-c2n[nH]cc2CNC2CCC(O)CC2)c1 (stereo not given)	16.07%	5.665%	-2.079%	1.077%
Cc1ccccc1CN1CCOC(c2nccc(CN(C)C)n2)C1 (stereo not given)	18.56%	3.632%	0.9507%	-
CCC(OC)C(=O)NCC1CCN(c2cnn(C)c(=O)c2)CC1 (stereo not given)	11.29%	1.333%	4.394%	-0.5387%
CCc1nc(CN2CCOC(CN(C)c3cccnn3)C2)cs1 (stereo not given)	3.306%	9.719%	6.059%	1.221%
CCc1c(C)nc2n(c1=O)CC(C(=O)Nc1ncccc1C)CS2 (stereo not given)	6.849%	1.713%	2.136%	-1.357%
Cn1c(=O)oc2cc(Nc3ncc(C#N)cc3Cl)ccc21	4.444%	-0.9804%	-1.772%	0.9877%
NC1CCCCN(Cc2cc(C3CCCCC3)no2)C1 (stereo not given)	10.26%	-50%	4.155%	-3.783%
CNC(=O)c1cc2c(nc1N(C)C)CCN(c1ncc(F)cn1)CC2	13.86%	4.827%	4.401%	-
Cc1ccc(CNCc2c(C(C)C)nn(C)c2N2CCOCC2)s1	8.434%	4.43%	2.859%	1.224%
Cc1c(C(=O)N2CCN(c3ccccn3)CC2)n(C)c2ccc(Cl)cc12	18.68%	44.58% & 20.1%	0.3626%	0.6159%
CCN(CC)S(=O)(=O)N1CCCC(c2ncc3c(n2)CCN(C)C3)C1 (stereo not given)	16.78%	-19.61%	-0.9568%	50.2%
CC1CN(C(=O)c2ccn(C)c(=O)c2)c2ccccc2NC1=O (stereo not given)	18.58%	4.439%	1.395%	-3.351%
O=C(c1cccc2c1OCO2)N1CCCC1c1noc(C2CC2)n1 (stereo not given)	1.124%	1.028%	-3.615%	9.048%
COC1CCN(CCNC(=O)NCC(C)c2cccc(C)c2)CC1 (stereo not given)	19.18%	-16.82%	-3.329%	3.271%
c1ccc(CN2CCCC2Cn2cncn2)nc1 (stereo not given)	10.11%	-5.398%	1.979%	-3.855%
CC(C)OC[C@H]1CCC[C@]12CN(C(=O)C1CCOCC1)CCO2	13.86%	2.847%	2.841%	-
CCc1nc(CN(C)C2CCN(Cc3nc(C4CC4)no3)C2)no1 (stereo not given)	-1.77%	9.529%	-1.482%	-2.437%
CC(C)CNC(=O)c1nc2c(s1)CCN(C(=O)c1cccnc1)CC2	5.263%	-9.165%	1.848%	-4.689%
Cc1nc(C)c(Cc2nc(C3CC3)n[nH]2)c(=O)[nH]1	8.73%	-0.2457%	2.157%	0.5228%
Cc1cc2[nH]c(CN3CCOC(C(F)(F)F)C3)cc(=O)n2n1 (stereo not given)	6.667%	-1.961%	2.86%	-1.481%
Cc1cnn(CCNCc2csc(-c3cccs3)n2)c1	5.6%	1.33%	0.861%	-12.89%
CC1CN(CCc2ccncc2)CCO1 (stereo not given)	9.89%	0.9639%	4.279%	-2.136%
Cc1n[nH]c(C)c1C1CCCN1C(=O)Cc1cccc(F)c1 (stereo not given)	8.434%	-1.139%	4.46%	0.6798%
NS(=O)(=O)CCN1CCOC(c2ccc(Cl)cc2)C1 (stereo not given)	10.92%	-0.4878%	3.729%	4.033%
COCCN1CCCCC12CC(=O)N(c1cccc(C#N)c1)C2 (stereo not given)	26.13%	2.97%	4.244%	-
O=C(c1ccncc1)N1CCC(Cc2cnc3[nH]ccc3c2)CC1	20.62%	6.78%	3.419%	-
O=C(NCC1(CO)CC1)c1ccccc1Cl	9.917%	-1.124%	1.564%	-0.3127%
O=C(NS(=O)(=O)Cc1ccc(F)cc1)C1CCOc2ccccc21 (stereo not given)	17.17%	3.865%	5.132%	-4.364%
CCN1CC[C@@]2(C(=O)Nc3ccccc3)CCN(S(C)(=O)=O)CC[C@@H]12	23.08%	5.764%	-4.25%	-2.628%
CC(NC(=O)c1cccnc1N(C)C)c1ccccc1Cl (stereo not given)	16.44%	7.57%	7.258%	-3.725%
Cc1ccc(NC2CCN(C(=O)c3ccc(F)c(C)c3)CC2)nn1	0%	0.9558%	-2.199%	11.46%
O=C(c1ccnnc1)N1CC[C@H]2[C@H]1CCN2S(=O)(=O)C1CC1	3.509%	7.625%	-1.35%	8.481%
Cc1[nH]c2ccc(Cl)cc2c1CCNc1ncnc2c1CCNC2	41.03%	-15.2%	0.6811%	-2.773%
CCC(CC)C(=O)N1CCOC2(COCCN(CC(=O)NC)C2)C1 (stereo not given)	2.564%	4.261%	-1.853%	2.213%
COCC(=O)N1CCC2(CC1)CC(N1CCOCC1)c1ccc(C)cc12 (stereo not given)	13.13%	-0.7246%	3.23%	0.9091%
Cc1nc(C2CCN(C(=O)c3cc(C4CC4)[nH]n3)CC2)no1	7.143%	3.864%	2.067%	-4.802%
Cc1csc(C(=O)NCCN2CCC(c3cccs3)CC2)c1	13.48%	6.378%	2.431%	0.4402%
Cc1ccccc1C(=O)NC[C@@H]1CCN(C(=O)CN2CCCC2)C[C@H]1O	6.667%	4.866%	0.7372%	1.961%

4 of the entries, repeated:

- CCN(CC)S(=O)(=O)N1CCCC(c2ncc3c(n2)CCN(C)C3)C1 (stereo not given) | LiHisRS: 16.78%; CoaBC: -19.61%; PfKRS1: -0.9568%; MtTrpRS: 50.2%
- c1ccc(CN2CCCC2Cn2cncn2)nc1 (stereo not given) | LiHisRS: 10.11%; CoaBC: -5.398%; PfKRS1: 1.979%; MtTrpRS: -3.855%
- CCc1c(C)nc2n(c1=O)CC(C(=O)Nc1ncccc1C)CS2 (stereo not given) | LiHisRS: 6.849%; CoaBC: 1.713%; PfKRS1: 2.136%; MtTrpRS: -1.357%
- COc1ncccc1CNC(=O)c1cc(F)cc(Br)c1 | LiHisRS: -20.63%; CoaBC: 6.957%; PfKRS1: 2.831%; MtTrpRS: 1.486%